Source: PubChem BioAssay AID488835 (Broad Institute, 2010)
The whole screen tested about 1,400 compounds, of which about 140 (10%) were called active.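 Rule for the calls: active = Half-maximal inhibitory dose from the fit at or below ten times the top valid tested dose; inconclusive = Invalid fit, or flat curve showing 30 to 70% inhibition; inactive = the rest.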 The entries are a selection whose mix differs from that of the whole data set. Measured potencies and affinities stand elsewhere.

Amino acid sequences for entries named in this document (tags omitted). Residues count along the entry.
UniProt Q9H3R0, 1-420 limits assumed: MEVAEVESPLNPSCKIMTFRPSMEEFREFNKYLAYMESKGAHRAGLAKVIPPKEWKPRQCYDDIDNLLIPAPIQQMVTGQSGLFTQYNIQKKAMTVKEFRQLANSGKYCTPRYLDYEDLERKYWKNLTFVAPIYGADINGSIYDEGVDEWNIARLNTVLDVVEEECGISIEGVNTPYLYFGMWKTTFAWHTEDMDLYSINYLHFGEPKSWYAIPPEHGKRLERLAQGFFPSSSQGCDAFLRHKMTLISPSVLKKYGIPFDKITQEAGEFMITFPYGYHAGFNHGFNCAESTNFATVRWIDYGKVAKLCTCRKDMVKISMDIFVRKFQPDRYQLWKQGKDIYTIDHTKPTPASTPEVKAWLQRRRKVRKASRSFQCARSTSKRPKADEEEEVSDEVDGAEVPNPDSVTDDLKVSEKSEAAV

target: Lysine-specific demethylase 4C (Homo sapiens) (UniProt Q9H3R0); assay: GASC-1 (JMJD2C) histone demethylase inhibitors, dose response, biochemical, DELFIA europium, cherry-picked samples (AID 488835); conditions: GST-JMJD2C(1-420), H3K9me3 demethylation; at 6 µM (top of the series) unless noted;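 note: signal is the H3K9me2 demethylation product detected by a dimethyl-specific antibody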

Activity change, negative = inhibition, inactive:
COc1ccccc1NC(=O)c1cccs1 -1.1% [at 1.6 µM]
COc1ccc(CNC(=O)C2(CC3CC(c4ccccc4)=NO3)CCNCC2)cc1 (stereo unspecified) 4.29%
COc1ccc(NC(=O)CCCN(C)S(=O)(=O)c2ccc(C)cc2)cc1 -0.654%
COc1cc(NC(=O)CSc2nnnn2Cc2ccc3c(c2)OCO3)cc(OC)c1 2.73%
CCN(CC(=O)NCC1CCCO1)S(=O)(=O)c1ccc(Cl)cc1 (stereo unspecified) 4.07%
Cc1ccc(NC(=O)C(=O)NCCN2CCN(C(=O)C(c3ccccc3)c3ccccc3)CC2)cc1 0.69%
Cc1ccc(O)c(C(=O)c2cc(C#N)c(=O)n(CC3CCCO3)c2)c1 (stereo unspecified) -1.42%
Brc1ccc(-c2csc(N3CCc4ccccc4C3)n2)cc1 -8.29%
Cc1ccc(C(=O)NCC(=O)OCC(=O)Nc2ccc(Cl)cc2C(F)(F)F)cc1C 14.9%
CCOC(=O)c1c(S(=O)(=O)NCC(=O)Nc2cccc(C)c2C)c(C)n(C)c1C 0.0665%
COc1ccc(OC)c(C2=NOC(C(=O)NCCN3CCOCC3)C2)c1 (stereo unspecified) 0.98%
CC1CC(NC(=O)N(C)C)N(C)C(=O)N1 (stereo unspecified) 8.29%
CCN(c1ccc(NC(=O)CCNC(=O)c2ccco2)cc1)C(C)C 7.29%
CC(=O)Nc1ccc(NC(=O)CSc2ncnn2-c2ccccc2)cc1 -0.718%
COc1ccc(OC)c(/C=N/NC(=O)CNC(=O)c2ccc(S(=O)(=O)N3CCOCC3)cc2)c1 -0.0536%
CCC(=O)N1CCc2cc(Br)cc(S(=O)(=O)CC(=O)OC)c21 7.49%
OCc1ccc(-c2nn(Cc3ccccc3)c3ccccc23)o1 -0.0861%
COc1ccccc1C(=O)OCc1c(-c2ccccc2)ncc2ccccc12 2.56%
COC(C/C=C\[C@H](O)[C@H](C)OCc1ccccc1)OC -5.17%
Cc1cc(Cl)ccc1OCc1nc(-c2ccncc2)no1 7.77%
CC(C)(C)n1ncc2c(=O)n(Cc3ccccc3Br)cnc21 -1.56%
COc1ccc(/C=C2/CC/C(=C\c3ccc(OC)c(OC)c3OC)C2=O)c(OC)c1OC -0.573%
CCOC(=O)N1CCN(C(=S)NC(=O)c2ccc(F)cc2)CC1 -2.89%
Oc1ccc(Br)cc1/C=N/Nc1nc(N2CCCCC2)nc(N2CCOCC2)n1 12.4%
C=CCn1c(O)c(N=Nc2ccccc2C)c2ccccc21 -0.66%
Cc1ccc(S(=O)(=O)NCCC(=O)Oc2ccc3ccc(=O)oc3c2)cc1 -3.91%
COc1ccc(/C=N/N=C2\CC3CCC2(C)C3(C)C)cc1O (stereo unspecified) 2.55%
Cc1ccc(C)c(N2CCN(C(=O)Cn3ncc4c([nH]c5ccc(C)cc54)c3=O)CC2)c1 2.38%
COc1cc(OC)cc(C(=O)Nc2ccc(-n3cnnn3)c(C)c2)c1 4.84%
Cc1c(Cl)c(-c2n[nH]c(=S)n2-c2ccc(F)cc2)nn1C 17.3%
CC(C)Cn1c(N)c(C(=O)COC(=O)c2c(O)c(Cl)cc(Cl)c2Cl)c(=O)n(C)c1=O 13.9%
O=c1oc2ccccc2cc1-c1nc(-c2cccs2)cs1 -0.974% [at 1.6 µM]
CS(=O)(=O)N(CC(=O)Nc1ccccc1C(=O)NCCc1ccccc1)c1ccc2c(c1)OCCO2 -4.8%
OCc1csc(=Nc2ccccc2)n1-c1ccccc1 -7.27%
COC(=O)[C@]1(Cc2ccccc2)N[C@H](CN(C)S(=O)(=O)c2ccc(-c3ccccc3)cc2)[C@@H]2C(=O)N(C)C(=O)[C@@H]21 -2.33%
CCC(C)(C)NC(=O)C(c1ccc(C)o1)N(Cc1cccs1)C(=O)Cn1nnc2ccccc21 (stereo unspecified) -2.77%
Cc1nnc(SCC(=O)Nc2sccc2C(N)=O)n1Cc1ccccc1 -10.5%
Cc1cc2cc3c(cc2nc1SCC(=O)N1CCOCC1)OCO3 3.16%
CCn1c(SCC(=O)Nc2nc(C)cs2)nnc1-c1ccncc1 3.16%
Cc1cccc(NC(=O)/C(=C\c2ccc([N+](=O)[O-])o2)NC(=O)c2ccc(Cl)cc2)c1 -5.59%
CCC(=O)N1c2ccc(S(=O)(=O)CCC(=O)NCCC3=CCCCC3)cc2CC1C (stereo unspecified) -5.61%
CCOC(=O)CCCCCC(=O)Nc1ccc2c(c1)CC(=O)N([C@@H](C)CO)C[C@H](C)[C@@H](CN(C)C(=O)Nc1ccc3c(c1)OCO3)O2 -7.35%
COC(=O)[C@]1(C)N[C@H](CN(C)C(=O)NC(C)C)[C@@H]2C(=O)N(Cc3ccccc3)C(=O)[C@@H]21 0.422%
N#CC1=C(C2CC2)CC(c2ccccc2)C(C#N)=C1N (stereo unspecified) 0.542%
C/C(=N\NC(=S)NCc1ccccc1)c1ccco1 4.47%
CCN(CC)C(=O)[C@H]1CC(CC(=O)NC/C=C(\C)CCC=C(C)C)C(=O)N2CCc3c([nH]c4ccccc34)[C@]12C (stereo partly specified) -7.06%
Cn1c(SCC(=O)N2CCCC2=O)nnc1-c1ccccc1F -9.87%
Cc1ccc(OCCSc2nnc(-c3cccs3)n2C)cc1 6.27%
Cc1nc2nc(C)c(CCC(=O)NCc3ccc4c(c3)OCO4)c(C)n2n1 -7.32%
COC(=O)COc1ccc(Oc2cc(C)nc(SC)n2)nn1 0.0464%
CC[C@]12c3[nH]c4ccccc4c3CCN1C(=O)C(CC(=O)NCCCOC)C[C@@H]2C(=O)N1CCN(C(=O)C2CC2)CC1 (stereo partly specified) 5.84%
CN1CCC[C@H]1CCNC(=O)c1c(-c2ccsc2)sc2ccccc12 0.336%
COc1ccc(C(=O)N2CCCC(c3nc(-c4ccc(OC)c(OC)c4)no3)C2)c(OC)c1 (stereo unspecified) 7.3%
C[C@H](CO)N1C[C@H](C)[C@@H](CN(C)C(=O)Nc2ccc(C(F)(F)F)cc2)Oc2c(cccc2N(C)C)C1=O 5.89%
Cc1onc(-c2c(F)cccc2Cl)c1C(=O)NC1CC1 -4.82%
O=[N+]([O-])c1cc(-c2cnc3ccccc3n2)ccc1Oc1ccc(F)cc1 -2.01%
Cc1cccn2c(=O)c3cc(C(=O)NCCN4CCOCC4)c(=N)n(CCc4ccccc4)c3nc12 -4.39%
Cc1ccc(S(=O)(=O)NC(=O)NCc2ccc(Cl)cc2)cc1 2.2%
Cc1cccc(C2=N/C(=C\c3cccnc3)C(=O)O2)c1 0.125%
CCN1CCC(=NNC(=O)c2ccc(C)c([N+](=O)[O-])c2)CC1 1.68%
CCOc1cc(CN2CCN(CCc3ccccc3)C(CCO)C2)ccc1OC (stereo unspecified) 4.52%
N#CC(=C1CCCC1)c1nc(-c2ccccc2)cs1 -4.71%
O=C(CSc1nnnn1-c1ccc(Cl)cc1)N1CCc2ccccc2C1 -2.61% [at 1.6 µM]
CCOc1ccc(-c2c(C#N)c(N)nc3c2c(=O)n(C)c(=O)n3C)cc1OC -0.465% [at 1.6 µM]
COc1ccc(-c2nnc(SC(C)C(=O)NCc3ccc4c(c3)OCO4)n2Cc2ccco2)cc1 (stereo unspecified) -2.31%
CCN1C(=O)C(C(=O)Nc2ccc(OC)cc2)C2CC1(C)Oc1ccccc12 (stereo unspecified) 4.42%
Cc1cc(OC(=O)c2c(C)cc(OC(=O)c3c(C)cc(O)cc3O)cc2O)cc(O)c1C(=O)O -3.02%
CCOC(=O)N1CCC(c2nc3ccccc3[nH]2)CC1 4.41%
CC(C)CCn1c(NCCN(C)C)nc2c1c(=O)[nH]c(=O)n2C 1.91%
O=c1oc(C2(O)CCCCC2)cc2ccccc12 1.2%
CCCCOc1ccc(C(=O)Nc2ccc(N3CCN(C(C)=O)CC3)cc2)cc1 12.3%
Cc1[nH]c2ccccc2c1-c1ccc(Cl)nn1 7.91%
Clc1ccccc1Cn1nnc2c(NCCN3CCOCC3)ncnc21 -4.09%
CCc1ccc(-c2nnn(Cc3nn[nH]n3)n2)cc1 1.52%
CC(C)CNC(=O)c1ccc(NC(=O)c2cccs2)cc1 0.895%
CCOc1cc(/C=N/NC(=O)C(=O)N/N=C/c2ccc(O)c(OCC)c2)ccc1O -5.54%
CCS(=O)(=O)N1CCN(c2ccc([N+](=O)[O-])c(N3CCOCC3)c2)CC1 8.83%
O=C(NS(=O)(=O)c1ccc2c(c1)OCCO2)c1ccccc1 -13.5%
CC(=O)C[C@H](O)CC(=O)[C@H]1OC(=O)[C@H](C)CCCCc2ccccc21 -2.76%
CCOC(=O)c1ccc2c(c1)nc(COc1ccc3ccccc3c1)n2CC -2.46%
C[C@@H](NC(=O)Cn1cnc2c(OCc3ccccc3)ncnc21)c1cccc2ccccc12 3.9%
C#CCNC(=O)C1=C[C@@H](c2ccc(C(F)(F)F)cc2)C[C@@H](OCCCCO)O1 6.13%
O=C(NCc1nnc(SCC(=O)N2CCCC2)o1)c1ccccc1F 7.1%
Cc1cc(NC(=O)Nc2c[nH]c(=O)[nH]c2=O)ccc1Br -1%
CCn1c(O)c(N=NC2=NC(=O)CS2)c2ccccc21 0.856%
COc1ccc(NC(=O)N(C)C[C@H]2Oc3ccc(NC(=O)CCN4CCOCC4)cc3C(=O)N([C@H](C)CO)C[C@@H]2C)cc1 -0.451%

4 compounds out of the list, arranged by length of the SMILES, descending:
Activity change, negative = inhibition, inactive:
CCOC(=O)CCCCCC(=O)Nc1ccc2c(c1)CC(=O)N([C@@H](C)CO)C[C@H](C)[C@@H](CN(C)C(=O)Nc1ccc3c(c1)OCO3)O2 -7.35%
Cc1ccc(C)c(N2CCN(C(=O)Cn3ncc4c([nH]c5ccc(C)cc54)c3=O)CC2)c1 2.38%
COc1ccc(NC(=O)CCCN(C)S(=O)(=O)c2ccc(C)cc2)cc1 -0.654%
COc1ccc(/C=N/N=C2\CC3CCC2(C)C3(C)C)cc1O (stereo unspecified) 2.55%
